Test results reported in patent US9657079B2 (Novo Nordisk A/S, priority 2007, dated 2017).

Assay: general procedure: Fmoc solid-phase peptide synthesis; ChemMatrix Rink Amide resin (0.24 mmol/g, 0.4 g); HBTU or HATU (A); DIC/HOAt (B); DIC/HOBt (C)
Conditions: whole synthesis, scale of the general procedure 0.25 mmol or 1.0 mmol

## N-epsilon31-[2-(2-{2-[2-(2-{2-[(S)-4-Carboxy-4-(17-carboxyheptadecanoylamino)butyrylamino]ethoxy}ethoxy)acetylamino]ethoxy}ethoxy)acetyl][DesaminoHis7,Asp11,Glu18,Glu22,Val25,Arg26,Asp27,Glu30,Lys31]GLP-1 (7-33)-peptide amide
HPLC (02_B4_4)
  final HPLC purity: 99.6%
HPLC (03_A3_1)
  final HPLC purity: 94.3%
